Assay results published in PMC9541285, “Drug‐dependent inhibition of nucleotide hydrolysis in the heterodimeric ABC multidrug transporter PatAB from Streptococcus pneumoniae” (The Febs Journal, 2022).
These are yes or no findings as the source states them, for the method shown. Binding calls can cover weak binding; strength is not graded here.

What was measured:
[1] = molecular target: C-terminally His10-tagged wildtype PatB (Streptococcus pneumoniae R6); assay: native MS; both purified
[2] = molecular target: C-terminally His10-tagged wildtype PatB (Streptococcus pneumoniae R6); assay: native MS; affinity-purified PatAB complexes, ~5 µM, buffer exchanged into 200 mM ammonium acetate (pH 8.0) with 2x CMC of detergent G1; nano-electrospray, Q-Exactive UHMR; both purified

Substance | binding [1] | binding [2]
N-terminally His6-tagged wildtype PatA (from UniProt A0ACD7PTT7) | binds | –
N-terminally His6-tagged PatA Q521A mutant (from UniProt A0ACD7PTT7) | – | binds
